# About 690 (0.19%) of roughly 360,000 compounds were called active. The inconclusive results got no clear call from the source; some entries with a clear call stand among them for comparison.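 Rule for the calls: active = fluorescence ratio to DMSO below 75%, the collection mean minus 3 SD; inconclusive = too few cells collected in the well; inactive = the rest.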
# Amino acid sequences for entries named in this document (tags omitted). A change or cut given only in a name is not applied to a line headed by its entry.
# UniProt Q9NP58: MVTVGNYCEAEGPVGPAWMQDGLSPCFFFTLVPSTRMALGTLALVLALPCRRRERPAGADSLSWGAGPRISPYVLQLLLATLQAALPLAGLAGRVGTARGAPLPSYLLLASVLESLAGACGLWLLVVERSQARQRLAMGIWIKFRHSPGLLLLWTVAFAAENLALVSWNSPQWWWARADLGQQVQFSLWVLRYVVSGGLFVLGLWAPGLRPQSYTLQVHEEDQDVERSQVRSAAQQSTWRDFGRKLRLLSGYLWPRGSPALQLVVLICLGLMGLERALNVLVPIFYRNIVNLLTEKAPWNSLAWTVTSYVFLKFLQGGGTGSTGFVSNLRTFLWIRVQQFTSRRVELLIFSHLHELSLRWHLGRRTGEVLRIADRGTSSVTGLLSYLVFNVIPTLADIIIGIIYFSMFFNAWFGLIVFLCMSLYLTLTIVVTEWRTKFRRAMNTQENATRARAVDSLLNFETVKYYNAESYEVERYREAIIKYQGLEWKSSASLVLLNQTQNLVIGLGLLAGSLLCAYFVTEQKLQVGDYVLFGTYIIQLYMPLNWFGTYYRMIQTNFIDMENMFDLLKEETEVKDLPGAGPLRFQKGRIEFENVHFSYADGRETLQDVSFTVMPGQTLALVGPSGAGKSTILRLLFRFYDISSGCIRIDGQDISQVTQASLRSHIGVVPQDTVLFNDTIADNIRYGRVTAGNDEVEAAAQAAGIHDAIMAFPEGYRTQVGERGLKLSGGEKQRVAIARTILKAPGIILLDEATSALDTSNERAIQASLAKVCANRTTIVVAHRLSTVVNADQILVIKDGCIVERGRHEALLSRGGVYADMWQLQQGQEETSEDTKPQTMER
# Molecular target: ATP-binding cassette sub-family B member 6 (Homo sapiens) (UniProt Q9NP58)
# Assay: blockers of ABCB6-driven porphyrin uptake – K562-ABCB6 cells, flow cytometry, MLPCN library, primary screen (AID 602162);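 for fluorescence ratio to DMSO: signal is porphyrin accumulated inside mitochondria; 100% equals median channel fluorescence of DMSO control wells; lower ratio means ABCB6 inhibition with less porphyrin fluorescence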
# Conditions: K562-ABCB6 porphyrin accumulation, 1 h; at 10 µM, stronger effect = lower value
row,Structure (SMILES),fluorescence ratio to DMSO
1,O=C(COC(=O)c1ncc(Cl)c(Cl)c1Cl)c1ccc(Cl)s1,active: 72%
2,C=CCn1c(SCC(=O)c2cc(C)n(CC3CCCO3)c2C)nnc1-c1ccccc1 (centres undefined),inconclusive
3,O=C(Nc1ccncc1)Nc1ccncc1,inactive: 103%
4,CC1(C(=O)NS(=O)(=O)c2ccc(C#N)cc2)CCN1C(=O)C1(c2ccc(Cl)cc2)CCC1 (centres undefined),inconclusive
5,CN1CCN(C(=O)CN(c2cc(C(F)(F)F)ccc2Cl)S(C)(=O)=O)CC1,inconclusive
6,CCN1C(=O)[C@H]2[C@@H](c3ccc(-c4ccccc4)c(OC)c3)N[C@@](CC(C)C)(C(=O)OC)[C@H]2C1=O,inactive: 97%
7,Cc1c(NC(=O)/C(C#N)=C/c2ccc(-c3ccc(Cl)c(Cl)c3)o2)c(=O)n(-c2ccccc2)n1C,inconclusive
8,COc1ccc(CN(C)C2c3ccccc3-c3ccccc32)cc1,inconclusive
9,COc1cc2c(C(=O)NCCCOC(C)C)cn(CC(C)C)c(=O)c2cc1OC,inactive: 95%
10,COc1cccc(N2CCN(S(=O)(=O)c3cc4c(cc3Cl)NC(=O)CO4)CC2)c1,inconclusive
11,CC1CN(c2ccc([N+](=O)[O-])cc2C#N)CC(C)O1 (centres undefined),inconclusive
12,Cc1ccc(OCc2cc(C(=O)N3CCC(c4ccccc4Cl)C3)no2)cc1C (centres undefined),inactive: 100%
13,CC1(C(=O)NS(=O)(=O)c2ccccc2Cl)CCN1C(=O)C1CCCCC1 (centres undefined),inconclusive
14,O=C(CCCn1cnc([N+](=O)[O-])n1)Nc1cccc(Cl)c1Cl,active: 72%
15,C=CC[C@H](CC(=O)N(CCO)Cc1ccccc1)C(=O)NC[C@H](OC(=O)[C@@H](CC=C)Cc1ccc(F)cc1)c1ccccc1,inconclusive
16,Cc1c(NC(=O)C(C)OC(=O)c2ccc([N+](=O)[O-])s2)c(=O)n(-c2ccccc2)n1C (centres undefined),inconclusive
17,Cc1ccc(OCC(=O)NC2CCS(=O)(=O)C2)cc1 (centres undefined),inconclusive
18,CC1CCCCN1S(=O)(=O)c1ccc(N(C(=O)c2cnccn2)C(C(=O)NC2CCCC2)c2cccs2)cc1 (centres undefined),active: 70%
19,Cc1nc(S/C(=C/c2ccc(-c3cc(Cl)ccc3C)o2)C(=O)O)n[nH]1,inactive: 99%
20,Cc1cccc(NC(=S)NCc2ccc3[nH]c4c(c3c2)CCCC4)c1,inconclusive
21,CCCc1nnc(NC(=O)c2cc3ccccc3oc2=O)s1,inactive: 102%
22,CCOCCn1c(CN2CCCCC2C)nc2c1c(=O)n(C)c(=O)n2C (centres undefined),inconclusive
23,CCN(CC)S(=O)(=O)c1ccc(O)c(C(=O)OCC(=O)N2CCCc3ccccc32)c1,inconclusive
24,Cc1cc(NC(=O)CSc2nnnn2-c2ccccc2F)no1,inactive: 173%

# Reformatted with bars between the fields: entries from further up
row | Structure (SMILES) | fluorescence ratio to DMSO
13 | CC1(C(=O)NS(=O)(=O)c2ccccc2Cl)CCN1C(=O)C1CCCCC1 (centres undefined) | inconclusive
14 | O=C(CCCn1cnc([N+](=O)[O-])n1)Nc1cccc(Cl)c1Cl | active: 72%

# Reference: PubChem BioAssay AID602162 (NMMLSC, 2011)
